Source: article PMC13316410
Results are given in words; binding and its absence hold for the method and conditions named. For some of these results: In cells and extracts the contact can be indirect. Some results given as binding are weak or reduced against the parent protein; the word gives no strength.

Columns and labels:
[1] = target: His-TOE1 F148Y (PCH7-linked variant), recombinant from E. coli (human) (UniProt Q96GM8); experiment: SEC; Superdex 200 Increase, 50 mM HEPES pH 8.0, 250 mM NaCl, 2% glycerol, 5 mM MgCl2, 1 mM DTT; size from the calibration of the column; recombinant TOE1 from E. coli; both purified
[2] = target: TOE1 wildtype, HA-tagged (bait) and MYC-tagged (prey) copies overexpressed in HEK293T cells (human) (UniProt Q96GM8); experiment: co-IP; HEK293T cells co-transfected with HA-tagged bait TOE1 and MYC-tagged prey TOE1 (WT or F148Y); clarified lysate (50 mM HEPES pH 8.0, 5 mM MgCl2, 200 mM NaCl, 10% glycerol, 0.05% IGEPAL CA-630, 2 mM PMSF) on anti-HA agarose resin; blots with anti-MYC and anti-HA
[3] = target: TOE1 F148Y, HA-tagged (bait) and MYC-tagged (prey) copies overexpressed in HEK293T cells (human) (UniProt Q96GM8); experiment: as above

| binding [1] | binding [2] | binding [3] | Substance |
| --- | --- | --- | --- |
| no binding | – | – | His-TOE1 F148Y (PCH7-linked variant), recombinant from E. coli (from UniProt Q96GM8 1-510) (enzyme) |
| – | binds | – | TOE1 F148Y, HA-tagged (bait) and MYC-tagged (prey) copies overexpressed in HEK293T cells (from UniProt Q96GM8 1-510) (enzyme) |
| – | binds | binds | TOE1 wildtype, HA-tagged (bait) and MYC-tagged (prey) copies overexpressed in HEK293T cells (from UniProt Q96GM8 1-510) (enzyme) |
